Among the data in doi:10.1101/2023.06.21.546019 are binding values, retold here.

Sequences of proteins named here, by UniProt entry; tags and fusion partners are left off. Residues count along the entry.
UniProt P63166, residues 1-97: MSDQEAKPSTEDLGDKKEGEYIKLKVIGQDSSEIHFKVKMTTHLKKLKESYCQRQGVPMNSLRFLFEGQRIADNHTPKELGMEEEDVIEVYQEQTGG
UniProt P52332: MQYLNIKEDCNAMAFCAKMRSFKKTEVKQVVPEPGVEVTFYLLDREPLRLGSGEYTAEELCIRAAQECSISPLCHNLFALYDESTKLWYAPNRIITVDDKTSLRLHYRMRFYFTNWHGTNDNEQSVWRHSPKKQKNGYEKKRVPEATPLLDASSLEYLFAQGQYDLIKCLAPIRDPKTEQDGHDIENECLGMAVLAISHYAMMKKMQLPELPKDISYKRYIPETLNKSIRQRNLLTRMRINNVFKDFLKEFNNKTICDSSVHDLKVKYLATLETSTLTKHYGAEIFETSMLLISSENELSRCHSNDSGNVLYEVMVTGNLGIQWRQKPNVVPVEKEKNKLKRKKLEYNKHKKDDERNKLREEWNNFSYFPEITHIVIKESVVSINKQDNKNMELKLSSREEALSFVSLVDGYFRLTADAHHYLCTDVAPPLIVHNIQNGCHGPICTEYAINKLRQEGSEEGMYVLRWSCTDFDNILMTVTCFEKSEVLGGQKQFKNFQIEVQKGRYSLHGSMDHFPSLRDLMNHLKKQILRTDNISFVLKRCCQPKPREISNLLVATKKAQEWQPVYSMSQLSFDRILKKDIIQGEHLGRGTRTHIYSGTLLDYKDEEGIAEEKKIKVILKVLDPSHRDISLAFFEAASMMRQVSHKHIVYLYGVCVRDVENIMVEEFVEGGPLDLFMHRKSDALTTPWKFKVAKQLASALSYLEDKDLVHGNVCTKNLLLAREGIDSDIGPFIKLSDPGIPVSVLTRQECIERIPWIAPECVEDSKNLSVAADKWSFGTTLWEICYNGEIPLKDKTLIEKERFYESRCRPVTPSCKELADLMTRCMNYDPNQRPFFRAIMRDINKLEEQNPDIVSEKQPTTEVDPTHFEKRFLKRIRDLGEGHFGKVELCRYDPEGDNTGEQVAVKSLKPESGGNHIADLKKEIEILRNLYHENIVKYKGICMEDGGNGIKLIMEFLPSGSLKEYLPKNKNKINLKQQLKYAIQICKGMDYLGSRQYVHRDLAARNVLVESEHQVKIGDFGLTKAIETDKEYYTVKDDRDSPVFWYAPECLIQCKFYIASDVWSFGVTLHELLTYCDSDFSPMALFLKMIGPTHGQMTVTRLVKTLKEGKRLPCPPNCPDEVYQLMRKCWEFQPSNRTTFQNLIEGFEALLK

For experiment [1], the target named is SUMO1 (mouse (endogenous in primary cardiomyocytes)) (UniProt P63166). Briefly: affinity purification with mass spectrometry.
Experiment [2] has as its target T1, SENP1 (Sentrin-specific protease 1) (mouse (endogenous in primary cardiomyocytes)) (UniProt P59110).
T1 sequence: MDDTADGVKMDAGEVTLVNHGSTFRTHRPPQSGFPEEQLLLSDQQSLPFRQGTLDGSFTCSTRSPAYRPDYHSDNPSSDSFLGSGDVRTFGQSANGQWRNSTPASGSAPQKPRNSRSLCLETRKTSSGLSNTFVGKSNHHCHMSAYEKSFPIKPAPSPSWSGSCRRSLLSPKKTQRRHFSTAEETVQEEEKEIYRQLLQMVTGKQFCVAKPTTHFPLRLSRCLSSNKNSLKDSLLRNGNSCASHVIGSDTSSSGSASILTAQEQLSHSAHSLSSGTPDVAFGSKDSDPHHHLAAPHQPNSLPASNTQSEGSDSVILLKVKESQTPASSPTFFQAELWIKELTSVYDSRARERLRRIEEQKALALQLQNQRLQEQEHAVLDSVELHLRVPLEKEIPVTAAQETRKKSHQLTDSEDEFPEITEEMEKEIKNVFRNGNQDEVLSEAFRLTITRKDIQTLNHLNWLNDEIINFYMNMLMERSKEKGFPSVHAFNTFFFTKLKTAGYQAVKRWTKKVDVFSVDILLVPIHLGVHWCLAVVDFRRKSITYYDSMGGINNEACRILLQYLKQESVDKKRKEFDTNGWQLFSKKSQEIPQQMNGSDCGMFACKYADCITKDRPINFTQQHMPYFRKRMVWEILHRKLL
Kind of experiment: affinity purification with mass spectrometry.

Results are given in words; binding and its absence hold for the method and conditions named. In cells and extracts the contact can be indirect. These calls come from enrichment with a bait or labelling near it, and not all partners need be listed. No binding means not detected with the bait.

As to “EGFR (from UniProt Q01279 25-1210) (receptor)”, the binding entry in experiment [1] and in experiment [2] was “no binding” throughout. For the substance “JAK1 (from UniProt P52332 1-1153) (enzyme)”, the binding entry in experiment [2] is reported as “no binding”.
